According to US20210139602A1 (MEDABOME, published 2021):
No constants are given. Whether binding was seen depends on the method and setting. Some entries that bind do so weakly or less than the wild type. For some assays here: Tags and fused reporters may be left off the sequences shown. Values belong to the binder of their own block, whether it stands above or below them.

Assays:
[1] = biological target: T1, podocalyxin-like protein isoform 2 precursor (PODXL-v2) of gastric cancer cells (human) (UniProt O00592); experiment: immunoprecipitation from cell membrane fractions, Western blot
T1 sequence (looked up): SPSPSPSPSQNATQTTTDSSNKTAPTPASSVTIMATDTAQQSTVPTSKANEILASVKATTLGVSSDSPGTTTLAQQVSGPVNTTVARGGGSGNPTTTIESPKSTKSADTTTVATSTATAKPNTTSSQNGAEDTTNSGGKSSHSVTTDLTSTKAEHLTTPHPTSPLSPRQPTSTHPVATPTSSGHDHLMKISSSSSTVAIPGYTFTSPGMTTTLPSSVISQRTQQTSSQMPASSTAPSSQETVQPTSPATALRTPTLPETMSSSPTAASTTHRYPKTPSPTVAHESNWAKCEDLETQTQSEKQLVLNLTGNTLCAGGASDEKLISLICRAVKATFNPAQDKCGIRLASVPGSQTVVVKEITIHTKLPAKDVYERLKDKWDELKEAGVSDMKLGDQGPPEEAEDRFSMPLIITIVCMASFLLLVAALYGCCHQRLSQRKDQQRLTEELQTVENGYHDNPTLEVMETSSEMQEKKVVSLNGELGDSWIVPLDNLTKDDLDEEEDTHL

[2] = biological target: T1, podocalyxin-like protein isoform 2 precursor (PODXL-v2) of gastric cancer cells (human); experiment: immunocytochemistry on BGC823, MKN45 and GES-1 cells
[3] = biological target: T1, podocalyxin-like protein isoform 2 precursor (PODXL-v2) of gastric cancer cells (human); experiment: cell staining analysis of gastric cancer cells
[4] = biological target: T1, podocalyxin-like protein isoform 2 precursor (PODXL-v2) of gastric cancer cells (human); experiment: immunocytochemistry on cytospin slides
[5] = biological target: T1, podocalyxin-like protein isoform 2 precursor (PODXL-v2) of gastric cancer cells (human); experiment: Western blot after siRNA knock-down
[6] = biological target: T2, rPODXL-v2-Fc fusion protein (human) (UniProt O00592); experiment: direct and indirect ELISA
T2 sequence (highly glycosylated, looked up): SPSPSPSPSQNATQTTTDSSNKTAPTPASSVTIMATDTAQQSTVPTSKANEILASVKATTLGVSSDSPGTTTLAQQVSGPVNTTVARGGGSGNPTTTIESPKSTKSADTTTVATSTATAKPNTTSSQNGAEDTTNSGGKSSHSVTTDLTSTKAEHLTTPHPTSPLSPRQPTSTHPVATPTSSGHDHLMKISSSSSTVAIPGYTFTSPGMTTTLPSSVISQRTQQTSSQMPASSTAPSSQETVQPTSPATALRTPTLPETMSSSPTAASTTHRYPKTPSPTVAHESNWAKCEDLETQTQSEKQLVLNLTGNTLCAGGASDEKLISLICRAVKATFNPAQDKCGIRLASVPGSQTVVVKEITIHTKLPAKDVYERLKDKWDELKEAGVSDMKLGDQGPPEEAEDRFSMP

[7] = biological target: T1, podocalyxin-like protein isoform 2 precursor (PODXL-v2) of gastric cancer cells (human); experiment: Western blot of MKN45 lysates after siRNA knock-down
[8] = biological target: T2, rPODXL-v2-Fc fusion protein (human); experiment: BLI (Octet QKe), mAb captured on anti-mouse IgG Fc (AMC) biosensors
[9] = biological target: T2, rPODXL-v2-Fc fusion protein (human); experiment: ELISA (data not shown)
[10] = biological target: T2, rPODXL-v2-Fc fusion protein (human); experiment: direct ELISA, detection with HRP-conjugated anti-6xHis mAb

B1: MAI1738 mAb (antibody, V domains shown)
VH: EVKLVESGGGLVKPGGSLKVSCAASGFTFSTYTMSWVRQTPEKRLEWVATISGGVIYTYYPDSVKGRFTISRDDAKNTLYLQMSSLRSEDTALYYCARHYSNYEGQGMDSWGQGTSVTVSS
VL: DIVLTQSPVTLSVTPGDSVSLSCRASQSINNNLHWYQQKSHESPRLLIKYASQSISGIPPRFSGSRSGTDFTLSINTVETEDFGVYFCQQSNSWPLTFGAGTKLELKR
notes: Mouse monoclonal antibody from a hybridoma (A/J mice); it is detected with anti-mouse IgG-Fc; also called anti-PODXL-v2 monoclonal antibody; second subclone of MS17-38
- binding [1]: binds
- binding [2]: binds
- binding [3]: binds
- binding [4]: binds
- binding [5]: binds
- binding [6]: binds
- binding [7]: binds
- binding [8]: binds

B2: MAI1738 chimeric antibody (chiAb) (antibody, V domains shown, not shown: a dimerising Fc or GST)
VH: B1 VH
VL: B1 VL
- binding [9]: binds

The remaining lines, values ahead:

- binding [10]: binds
B3: MAI1738-HL-His (scFv)
scFv: EVKLVESGGGLVKPGGSLKVSCAASGFTFSTYTMSWVRQTPEKRLEWVATISGGVIYTYYPDSVKGRFTISRDDAKNTLYLQMSSLRSEDTALYYCARHYSNYEGQGMDSWGQGTSVTVSSAKTTPPSDGGGGSGGGGSGGGGSDIVLTQSPVTLSVTPGDSVSLSCRASQSINNNLHWYQQKSHESPRLLIKYASQSISGIPPRFSGSRSGTDFTLSINTVETEDFGVYFCQQSNSWPLTFGAGTKLELKRADAAPTVSHHHHHH

- binding [10]: binds
B4: MAI1738-LH-His (scFv)
scFv: DIVLTQSPVTLSVTPGDSVSLSCRASQSINNNLHWYQQKSHESPRLLIKYASQSISGIPPRFSGSRSGTDFTLSINTVETEDFGVYFCQQSNSWPLTFGAGTKLELKRADAAPTVSGGGGSGGGGSGGGGSEVKLVESGGGLVKPGGSLKVSCAASGFTFSTYTMSWVRQTPEKRLEWVATISGGVIYTYYPDSVKGRFTISRDDAKNTLYLQMSSLRSEDTALYYCARHYSNYEGQGMDSWGQGTSVTVSSAKTTPPSDHHHHHH
